No constants are given. Whether binding was seen depends on the method and setting. Binding seen in cells or lysates may run through a third protein. Some results given as binding are weak or reduced against the parent protein; the word gives no strength.

Protein sequences, listed by entry. Tags and fused reporters are not part of them.
UniProt Q96EB6: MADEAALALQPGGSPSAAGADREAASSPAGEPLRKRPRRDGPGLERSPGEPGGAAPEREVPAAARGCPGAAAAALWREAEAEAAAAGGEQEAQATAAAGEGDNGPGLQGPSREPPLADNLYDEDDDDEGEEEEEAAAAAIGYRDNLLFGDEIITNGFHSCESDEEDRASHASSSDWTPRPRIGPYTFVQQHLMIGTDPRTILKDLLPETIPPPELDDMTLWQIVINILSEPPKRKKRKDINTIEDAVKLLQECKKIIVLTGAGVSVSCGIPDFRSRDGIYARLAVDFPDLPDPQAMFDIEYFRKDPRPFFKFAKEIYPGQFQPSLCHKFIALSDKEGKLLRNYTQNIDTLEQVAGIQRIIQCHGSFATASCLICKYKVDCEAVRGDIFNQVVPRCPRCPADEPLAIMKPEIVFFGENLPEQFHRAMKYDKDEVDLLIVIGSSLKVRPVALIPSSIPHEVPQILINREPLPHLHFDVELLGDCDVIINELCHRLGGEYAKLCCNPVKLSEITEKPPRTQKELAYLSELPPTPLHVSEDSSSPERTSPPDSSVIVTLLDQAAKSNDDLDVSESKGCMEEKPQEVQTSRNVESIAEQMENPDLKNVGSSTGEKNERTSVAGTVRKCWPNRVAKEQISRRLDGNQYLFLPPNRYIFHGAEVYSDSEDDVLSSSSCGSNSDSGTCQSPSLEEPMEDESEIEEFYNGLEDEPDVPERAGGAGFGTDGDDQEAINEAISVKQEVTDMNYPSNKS

Assay [1] deals with T1, NAD-dependent protein deacetylase sirtuin-1 (SIRT1), in primary mouse B cells (mouse (endogenous in primary mouse B cells)) (UniProt Q923E4).
T1 sequence: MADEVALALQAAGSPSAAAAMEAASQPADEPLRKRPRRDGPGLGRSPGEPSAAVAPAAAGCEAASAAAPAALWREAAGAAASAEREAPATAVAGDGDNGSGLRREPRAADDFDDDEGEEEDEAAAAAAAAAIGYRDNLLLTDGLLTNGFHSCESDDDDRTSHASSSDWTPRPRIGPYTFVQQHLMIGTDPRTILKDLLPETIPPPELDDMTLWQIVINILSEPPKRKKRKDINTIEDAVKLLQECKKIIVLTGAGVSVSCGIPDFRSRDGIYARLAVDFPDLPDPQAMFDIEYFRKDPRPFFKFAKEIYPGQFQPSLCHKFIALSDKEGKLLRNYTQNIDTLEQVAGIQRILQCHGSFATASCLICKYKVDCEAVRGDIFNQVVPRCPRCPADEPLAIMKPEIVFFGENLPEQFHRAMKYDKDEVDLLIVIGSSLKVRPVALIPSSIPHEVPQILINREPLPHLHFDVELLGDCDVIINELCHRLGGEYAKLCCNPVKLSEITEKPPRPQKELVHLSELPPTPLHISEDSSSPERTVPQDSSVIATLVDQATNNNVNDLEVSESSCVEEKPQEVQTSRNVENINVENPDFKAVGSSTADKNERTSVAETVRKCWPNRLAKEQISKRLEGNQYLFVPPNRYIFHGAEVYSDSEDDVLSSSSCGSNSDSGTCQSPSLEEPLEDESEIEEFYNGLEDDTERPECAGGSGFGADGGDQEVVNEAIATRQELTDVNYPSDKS
Briefly: co-IP; in GM12878 cells and in primary mouse B cells; which protein was precipitated is not told.

In assay [2] the target is NAD-dependent protein deacetylase sirtuin-1 (SIRT1), in GM12878 cells (human (endogenous in GM12878)) (UniProt Q96EB6). The assay is described as above.

B1: sentrin-specific protease 7 (SENP7), in primary mouse B cells (enzyme, UniProt Q8BUH8 1-1037)
chain: MDRARPGRRRASSEIVTEGKRKKSSPADLQKITKLLTVKSEDVLAQSPLSKLRGSECWWTRSLRNKVICLDHKKPKAARGCPPKGLPKRHLRVMLTNVLWTDLGREFRKTLPRKDANLCAPSKVQSDSLPSTSVDSIETCQRLDPLHQSLNLSERTPRVILTDIRQTELGRKYLKIPPVTEASLSDTANLKSEQLSSSSDGSLESCQSVNHHKSFLSESGPKPSRTGDVPAKEAACGGQKQGDDGGVTPEMAAPHPKDFNTGNKGCDYLEEGTSNKNTSYSYSEMDHTPVSRKRKKRGRSNFHDSHNSKTSLDKPTEHTKEEENDSSVSRKLEESGEDSHQDPAPPEGLAPESLESEATNLRSFAAGQEPDASAASGRASSPNKSLESSASSEVSENSSVAVKGEALTLKEASPPGGSSEESQLLISAEPIVVSSDEEGPVEHKNSVILKLQPPHEIMSENQGTSDPQLSELTLGACESVQVTSELFPYNPDVENISCIKSNSEMDLKLDFIFTCVYIGKIKGTPKGCVTFTKKYIKIPFQVSTNEISLTVDTARLKRFGLWESKDEDHSKRSHAILFLWLSSDYLQDIQTQLENPMLSQQSKANEFIFLELNSSISQREELKLKDIMMEISTKNGNLHLSCPLPWVQALPLFQDLSPQEISFLHYYYASASALPTAAGADMKKKSVSQPSNSDTIKPTYTFLHKQSSGCYSLSITSSPEEEWQEVRNTGPVQKLIVYPPPPTKGGLGVTNEDLECLEEGEFLNDVIIDFYLKYLLLEKASDELVERSHIFSSFFYKCLTRKENNLTEDNPDLSVAQRRHRRVRTWTRHINIFNKDYIFVPVNESSHWYLAVICFPWLEEAVYEDCPQTVSQQFQGQQSQHDHKMTDNDPHTTSTVSTSAEDSQSTEVNMSVPKKMCKRPCILILDSLKAASIQNTVQNLREYLEVEWEVKRKTHREFSKTNMVDLCPKVPKQDNSSDCGVYLLQYVESFFQDPIVNFELPIHLEKWFPRHVIKTKREDIRELILKLHLQQQKGGSC
Consider B1, for which the binding result in assay [1] was “binds”.

B2: sentrin-specific protease 7 (SENP7), in GM12878 cells (enzyme, UniProt Q9BQF6 1-1050)
chain: MDKRKLGRRPSSSEIITEGKRKKSSSDLSEIRKMLNAKPEDVHVQSPLSKFRSSERWTLPLQWERSLRNKVISLDHKNKKHIRGCPVTSKSSPERQLKVMLTNVLWTDLGRKFRKTLPRNDANLCDANKVQSDSLPSTSVDSLETCQKLEPLRQSLNLSERIPRVILTNVLGTELGRKYIRTPPVTEGSLSDTDNLQSEQLSSSSDGSLESYQNLNPHKSCYLSERGSQRSKTVDDNSAKQTAHNKEKRRKDDGISLLISDTQPEDLNSGSRGCDHLEQESRNKDVKYSDSKVELTLISRKTKRRLRNNLPDSQYCTSLDKSTEQTKKQEDDSTISTEFEKPSENYHQDPKLPEEITTKPTKSDFTKLSSLNSQELTLSNATKSASAGSTTETVENSNSIDIVGISSLVEKDENELNTIEKPILRGHNEGNQSLISAEPIVVSSDEEGPVEHKSSEILKLQSKQDRETTNENESTSESALLELPLITCESVQMSSELCPYNPVMENISSIMPSNEMDLQLDFIFTSVYIGKIKGASKGCVTITKKYIKIPFQVSLNEISLLVDTTHLKRFGLWKSKDDNHSKRSHAILFFWVSSDYLQEIQTQLEHSVLSQQSKSSEFIFLELHNPVSQREELKLKDIMTEISIISGELELSYPLSWVQAFPLFQNLSSKESSFIHYYCVSTCSFPAGVAVAEEMKLKSVSQPSNTDAAKPTYTFLQKQSSGCYSLSITSNPDEEWREVRHTGLVQKLIVYPPPPTKGGLGVTNEDLECLEEGEFLNDVIIDFYLKYLILEKASDELVERSHIFSSFFYKCLTRKENNLTEDNPNLSMAQRRHKRVRTWTRHINIFNKDYIFVPVNESSHWYLAVICFPWLEEAVYEDFPQTVSQQSQAQQSQNDNKTIDNDLRTTSTLSLSAEDSQSTESNMSVPKKMCKRPCILILDSLKAASVQNTVQNLREYLEVEWEVKLKTHRQFSKTNMVDLCPKVPKQDNSSDCGVYLLQYVESFFKDPIVNFELPIHLEKWFPRHVIKTKREDIRELILKLHLQQQKGSSS
Turning to B2, the binding result in assay [2] is given as “binds”.
